No constants are given. Whether binding was seen depends on the method and setting. Binding seen in cells or lysates may run through a third protein. A result given as binding can be weak or reduced; the word gives no strength. Where a sequence is shown, tags or fusion partners need not be part of it.

The assay deals with HaloTag::3xFLAG::TEV::OOPS-1A (C. elegans). The assay is described as follows: pull-down; tagged OOPS-1 and SPE-11 co-expressed in E. coli; lysate passed in turn over ANTI-FLAG M2 gel (3x FLAG peptide elution), HaloLink resin (HaloTEV cleavage) and anti-HA agarose (HA peptide elution); TBSN buffer (50 mM Tris-HCl pH 7.4, 150 mM NaCl, 0.05% NP-40); Coomassie-stained gel.

B1: S-tag::HA::PreScission::SPE-11 (protein, UniProt P54217 1-299)
chain: MSDEEIDISTALNNKTTPKKKSLKRNSNSQEGYESPEEREIVYPSVFGAIGTPMAKSDNAKEWDEWKEKERKKDKAEWKRYLRSKWDMTQGHLPLVSDSEFLKGRKEHKEYNSKARMDILDGLDEVNEGFFNCGKGAAMNIRYNDKNVSKKGAKKFVATVETAMKKAGNPTMEQMMTDDLDEDEARAEAEWERQREQRKLASRAYDAAMDEREDDAKYVPWDEYCQEMEELGKELKIGEKHYKKWLEKKMDENKVTHKFNAYQLDLKCLDEDAFSNKKSLKSVVRNVQKFYRKMREPKK
With B1, the binding result is reported as “binds”.

Source of the values: paper PMC12273631.
